# Results: PubChem BioAssay AID504834 (National Center for Advancing Translational Sciences (NCATS), 2011)
# Among all 320,000 compounds or so, about 22,000 (6.9%) were called active. The inconclusive results got no clear call from the source; some entries with a clear call stand among them for comparison. Calls follow the shape of the dose curve; as a rule, active = well fitted inhibition curve with a large enough effect; inconclusive = small, poorly fitted or top-dose-only effect, or another doubt; inactive = no such curve, though single readings can be large or run the other way. Potencies of inconclusive entries are doubtful fits and often do not repeat.
# Test: Primary qHTS for delayed death inhibitors of the malarial parasite plastid, 96 hour incubation
# Details: P. falciparum luciferase reporter growth; series mostly up to 28.7 µM
# Procedure, shortened: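 Readout is luminescence from an integrated firefly luciferase in P. falciparum. Red cells, 2% hematocrit and 0.05% parasitemia final, were cultured with compound through two parasite generations (96 hours) at 37 C, 5% CO2.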
# Potency is read from the fitted curve at half-maximal effect.
row,Compound,Potency
1,O=c1[nH]cnc2c1cnn2Cc1ccccc1Cl,inactive
2,O=C(Nc1ccccc1F)N1CCC(NC(=O)C23CC4CC(CC(C4)C2)C3)CC1,"inconclusive: 13.1 µM [inhibitor, partial curve]"
3,CC(C)(C)c1ccc(C(=O)OCC(=O)Nc2sc3c(c2C#N)CCC3)cc1,"inconclusive: 5.22 µM [inhibitor, partial curve]"
4,Cc1ccc(N2C(=O)C(CN3CCCC3)C2c2ccccc2)cc1 (centres undefined),"inconclusive: 18.5 µM [inhibitor, single point]"
5,C=CCc1cccc2cc(NC(C)=O)c(=O)oc12,"inconclusive: 11.7 µM [inhibitor, partial curve, poor fit]"
6,COc1ccc(N(C(=O)c2cnsn2)C(C(=O)NC2CCCCC2)c2ccncc2)cc1 (centres undefined),"inconclusive: 8.28 µM [inhibitor, partial curve, poor fit]"
7,CC(=O)c1ccc(NC(=O)c2ccccc2Sc2ncnc3sc(C)c(C)c23)cc1,"inconclusive: 14.7 µM [inhibitor, partial curve]"
8,Cc1ccc(/C=C2\SC(=S)N(CCCC(=O)NNC(=O)c3ccccc3O)C2=O)cc1,"inconclusive: 13.1 µM [inhibitor, single point]"
9,COCCC(=O)N1CCC(Oc2ccc(C(=O)NCCSC)cc2)CC1,"inconclusive: 13.1 µM [inhibitor, single point]"
10,Cc1cccc(C)c1NC(=S)NCCc1ccccn1,"inconclusive: 0.294 µM [inhibitor, full curve, poor fit]"
11,Cc1ccc(CS(=O)(=O)CCC(=O)NCCC2=CCCCC2)cc1,"inconclusive: 18.5 µM [inhibitor, single point]"
12,CCCCN(CCCC)C(=S)NC(=O)C(C)(C)C,"inconclusive: 2.94 µM [inhibitor, partial curve, poor fit]"
13,Cc1ccc(C(=O)C(C)CN2CCCCC2)cc1 (centres undefined),active: 13.5 µM
14,Cc1ccc(C(=O)C(OC(=O)c2cnccn2)c2ccccc2)cc1C (centres undefined),"inconclusive: 18.5 µM [inhibitor, single point]"
15,CN1CCN(C(=O)c2cc3ccccc3[nH]2)CC1,"inconclusive: 16.5 µM [inhibitor, single point]"
16,CC1(C)C(C#N)=C(N)OC2=C1C(=O)CCC2,"inconclusive: 2.08 µM [inhibitor, single point]"
17,c1nc(NCc2ccc3c(c2)OCO3)c2cc(-c3ccc4c(c3)OCCO4)ccc2n1,"inconclusive: 18.5 µM [inhibitor, single point]"
18,COc1ccc2cc(C#N)c(NC(C)C)nc2c1,"inconclusive: 0.0029 µM [inhibitor, full curve, poor fit]"
19,CC(C)OCCCNC(=O)c1ccc(NS(C)(=O)=O)cc1,active: 10.4 µM
20,CN(CC(=O)NCCc1ccccn1)S(=O)(=O)c1ccc(Cl)cc1,inactive
21,C/C(CC(=O)NC12CC3CC(CC(C3)C1)C2)=N\NC(=O)Cc1cccs1,"inconclusive: 10.4 µM [inhibitor, single point]"
22,O=C(CSc1nc2ccccc2c2nc3ccccc3n12)NCc1ccco1,inactive
23,CCOC(=O)C1=C(CN2CCN(C(=O)c3ccco3)CC2)NC(=O)NC1c1ccc(F)cc1 (centres undefined),inactive

# Exported with tabs: two of the compounds above.
row	Compound	Potency
10	Cc1cccc(C)c1NC(=S)NCCc1ccccn1	inconclusive: 0.294 µM [inhibitor, full curve, poor fit]
21	C/C(CC(=O)NC12CC3CC(CC(C3)C1)C2)=N\NC(=O)Cc1cccs1	inconclusive: 10.4 µM [inhibitor, single point]

# Part of the list above in order of number of heavy atoms, largest number first:
row,Compound,Potency
21,C/C(CC(=O)NC12CC3CC(CC(C3)C1)C2)=N\NC(=O)Cc1cccs1,"inconclusive: 10.4 µM [inhibitor, single point]"
19,CC(C)OCCCNC(=O)c1ccc(NS(C)(=O)=O)cc1,active: 10.4 µM
5,C=CCc1cccc2cc(NC(C)=O)c(=O)oc12,"inconclusive: 11.7 µM [inhibitor, partial curve, poor fit]"

# Further structures follow.

row,Compound,Potency
1,CCC(C)NC(=O)NCc1ccccc1F (centres undefined),"inconclusive: 6.57 µM [inhibitor, partial curve]"
2,O=C(NNC(=O)c1ccc(S(=O)(=O)N2CCCC2)cc1)c1ccc(Br)cc1,inactive
3,O=[N+]([O-])c1ccc(NC(=S)NCC(c2cccnc2)N2CCOCC2)cc1 (centres undefined),"inconclusive: 13.1 µM [inhibitor, single point]"
4,CCOc1ccccc1OCC(=O)NNC(=S)NC1CCCCC1,"inconclusive: 13.1 µM [inhibitor, partial curve, poor fit]"
5,Cc1cccc(C)c1NC1=C(Cl)C(=O)OC1OC(C)C (centres undefined),"inconclusive: 1.47 µM [inhibitor, partial curve]"
6,O=C(Nc1ccc(-c2nc3cc(NC(=O)c4cccs4)ccc3o2)cc1)c1cccs1,"inconclusive: 4.15 µM [inhibitor, partial curve, poor fit]"
7,COc1ccc(-n2ncc3c(=O)n(CC(=O)N(C(C)C)C(C)C)cnc32)cc1,inactive
8,Cc1cc2cc(C)c3nnc(SCc4ccccn4)n3c2cc1C,"inconclusive: 13.1 µM [inhibitor, single point]"
9,CCN(CC)CCCNC(=O)c1[nH]c2ccccc2c1Sc1ccc(Cl)cc1,active: 13.1 µM
10,CCCN(Cc1nnc(-c2cccs2)o1)C(=O)c1cccc(S(=O)(=O)N2CCOCC2)c1,"inconclusive: 9.28 µM [inhibitor, partial curve, poor fit]"
11,CN(C)C(=S)Oc1ccccc1-c1ccccc1OC(=S)N(C)C,"inconclusive: 13.1 µM [inhibitor, partial curve, poor fit]"
12,Cn1c(=O)n(C)c2cc(NC(=O)CCc3ccccc3)c(Br)cc21,"inconclusive: 0.329 µM [inhibitor, full curve]"
13,O=c1ccn(-c2cccc(C(F)(F)F)c2)nc1-c1ccn(-c2ccccc2F)n1,active: 5.86 µM
14,CCO[C@@H]1OC(C(=O)NC2CC2)=C[C@H](c2ccc(Br)cc2)[C@H]1CCCO,inactive
15,Cc1cccn2c(=O)c3cc(C(=O)NC4CCCCC4)c(=N)n(Cc4ccccc4)c3nc12,"inconclusive: 1.65 µM [inhibitor, partial curve, poor fit]"
16,N=c1c2c(n(Cc3cccc(Cl)c3)c3c1CCC3)CCCC2,inactive
17,O=C(NC(=S)Nc1ccccc1Br)C1CCC1,"inconclusive: 4.65 µM [inhibitor, partial curve, poor fit]"
18,O=C(CN1CCN(Cc2ccccc2Cl)C1=O)NC1CCCCCC1,"inconclusive: 18.5 µM [inhibitor, single point]"
19,COc1ccc(-c2[nH]nc3c2C(c2ccsc2)C(C#N)=C(N)O3)cc1 (centres undefined),"inconclusive: 2.33 µM [inhibitor, full curve, poor fit]"
20,CC(N=C1NS(=O)(=O)c2ccccc21)C(=O)NCCCc1ccccc1 (centres undefined),inactive
21,Cc1cc(C)cc(NC(=O)CCC(=O)N2CCSc3ccccc32)c1,"inconclusive: 18.5 µM [inhibitor, single point]"
22,CCCCN(CC)C(=O)c1cc2c(=O)n3cccc(C)c3nc2s1,inactive
23,CN(C)C(=O)Oc1cccc(OCc2n(C)c3ccccc3[n+]2C)c1,active: 2.94 µM

row,Compound,Potency
1,CN(C)c1ccc(C(=O)N(Cc2ccccc2)Cc2ccccc2)cc1,active: 14.7 µM
2,CCOC(=O)C1C(=O)NC(C)C1c1ccccc1 (centres undefined),"inconclusive: 0.0828 µM [inhibitor, full curve, poor fit]"
3,CC(C)(C)c1ccc(/C=N/n2cnnc2)cc1,"inconclusive: 18.5 µM [inhibitor, single point]"
4,COc1ccc(Nc2ncnc3c2cnn3-c2ccccc2)cc1OC,"inconclusive: 10.4 µM [inhibitor, partial curve, poor fit]"
5,Cc1ccccc1NC(=O)CSc1nc2cc3c(cc2cc1C)CCC3,"inconclusive: 11.7 µM [inhibitor, partial curve, poor fit]"
6,CCOc1ccc(S(=O)(=O)N(C)c2ccc(OCC(=O)NCCc3ccc(OC)cc3)cc2)cc1,active: 3.29 µM
7,Cc1c(CNC(=O)c2c([N+](=O)[O-])cnn2C)cnn1C,inactive
8,COc1ccc(Cl)cc1C(=O)N/N=C/c1ccc(N2CCOCC2)cc1,"inconclusive: 11.7 µM [inhibitor, single point]"
9,Cc1nc(N2CCCCC2)nc(N2CCCCC2)c1C=O,"inconclusive: 7.38 µM [inhibitor, partial curve]"
10,COc1cccc(CNC(=O)CCN2C(=S)NC(C)(C)CC2C)c1 (centres undefined),"inconclusive: 18.5 µM [inhibitor, single point]"
11,CCN1CCN(C(CC(C)C)c2nnnn2CS(=O)(=O)c2ccc(C)cc2)CC1 (centres undefined),"inconclusive: 0.104 µM [inhibitor, full curve, poor fit]"
12,CC1Cc2ccccc2N1C1=CC(=O)CCC1 (centres undefined),"inconclusive: 0.0329 µM [inhibitor, full curve, poor fit]"
13,CCCc1nc(N)c(C#N)c(-c2cccnc2)c1CC,"inconclusive: 18.5 µM [inhibitor, single point]"
14,O=C(Nc1cccc([N+](=O)[O-])c1)c1ccc2snnc2c1,inactive
15,COc1ccc(Cn2c(=O)sc3ccccc3c2=O)cc1,"inconclusive: 0.0185 µM [inhibitor, full curve, poor fit]"
16,Cc1ccccc1NC(=O)c1cc(S(=O)(=O)N2CCOCC2)cs1,"inconclusive: 18.5 µM [inhibitor, single point]"
17,CC(CCc1ccccc1)NC(=O)CNC(=O)c1ccccc1Br (centres undefined),inactive
18,CC12CCC(=O)N1C(C(=O)Nc1nc3c(F)cc(F)cc3s1)CS2 (centres undefined),"inconclusive: 13.1 µM [inhibitor, single point]"
19,CCOc1ccc(C(=O)NCC(=O)OCC(=O)Nc2nnc(-c3ccccc3)o2)cc1,"inconclusive: 11.7 µM [inhibitor, partial curve]"
20,NCCc1c[nH]c2ccc(F)cc12,"inconclusive: 0.465 µM [inhibitor, full curve, poor fit]"
21,COC(=O)c1c(NC(=O)c2ccco2)sc(C(=O)Nc2ccc(F)cc2)c1C,"inconclusive: 13.1 µM [inhibitor, partial curve, poor fit]"
22,O=[N+]([O-])c1cccc(/C=N/NC2=NCCCCC2)c1,"inconclusive: 18.5 µM [inhibitor, single point]"
23,Cc1cc(NC(=O)CSc2nnnn2-c2ccc(F)cc2)no1,inactive
